Results are given in words; binding and its absence hold for the method and conditions named. Binding seen in cells or lysates may run through a third protein. Here binding means that the protein was enriched with, or labelled near, the bait; the list need not be complete.
B1: Oxysterol-binding protein-related protein 8 (protein, UniProt Q9BZF1-1 1-889)
chain: MEGGLADGEPDRTSLLGDSKDVLGPSTVVANSDESQLLTPGKMSQRQGKEAYPTPTKDLHQPSLSPASPHSQGFERGKEDISQNKDESSLSMSKSKSESKLYNGSEKDSSTSSKLTKKESLKVQKKNYREEKKRATKELLSTITDPSVIVMADWLKIRGTLKSWTKLWCVLKPGVLLIYKTQKNGQWVGTVLLNACEIIERPSKKDGFCFKLFHPLEQSIWAVKGPKGEAVGSITQPLPSSYLIIRATSESDGRCWMDALELALKCSSLLKRTMIREGKEHDLSVSSDSTHVTFYGLLRANNLHSGDNFQLNDSEIERQHFKDQDMYSDKSDKENDQEHDESDNEVMGKSEESDTDTSERQDDSYIEPEPVEPLKETTYTEQSHEELGEAGEASQTETVSEENKSLIWTLLKQVRPGMDLSKVVLPTFILEPRSFLDKLSDYYYHADFLSEAALEENPYFRLKKVVKWYLSGFYKKPKGLKKPYNPILGETFRCLWIHPRTNSKTFYIAEQVSHHPPISAFYVSNRKDGFCLSGSILAKSKFYGNSLSAILEGEARLTFLNRGEDYVMTMPYAHCKGILYGTMTLELGGTVNITCQKTGYSAILEFKLKPFLGSSDCVNQISGKLKLGKEVLATLEGHWDSEVFITDKKTDNSEVFWNPTPDIKQWRLIRHTVKFEEQGDFESEKLWQRVTRAINAKDQTEATQEKYVLEEAQRQAARDRKTKNEEWSCKLFELDPLTGEWHYKFADTRPWDPLNDMIQFEKDGVIQTKVKHRTPMVSVPKMKHKPTRQQKKVAKGYSSPEPDIQDSSGSEAQSVKPSTRRKKGIELGDIQSSIESIKQTQEEIKRNIMALRNHLVSSTPATDYFLQQKDYFIIFLLILLQVIINFMFK
B2: Phosphatase and actin regulator 4 (protein, UniProt Q8IZ21-2 1-712)
chain: MGQADVSRPVNPDAVEEADQPTTEPGMVLDSVEAGDTTPPTKRKSKFSGFGKIFKPWKWRKKKSSDKFKETSEVLERKISMRKPREELVKRGVLLEDPEQGGEDPGKPSDAMLKNGHTTPIGNARSSSPVQVEEEPVRLASLRKAIPEEDLKKRLGSTGSQPNSEAESVPENVPKPPLLPPKRPLSSSHEASEGQAKDATSSGGTARFIISTSITTAPAATTAATSLAKTVNLSVTPSPAPRTLPAAPASTNTTATPSLTHMVPAKQPPIPPPKPAHRNSNPVIAELSQAINSGTLLSKPSPPLPPKRGIPSTSVPTLESAAAITTKTPSDEREKSTCSMGSELLPMISPRSPSPPLPTHIPPEPPRTPPFPAKTFQVVPEIEFPPSLDLHQEIPQQEDQKKEVPKRILDQNFGEPHIPSRLPPLPLHIRIQQALTSPLPMTPILEGSHRAHSLLFENSDSFSEDSSTLGRTRSLPITIEMLKVPDDEEEEEQTCPSTFSEEMTPTSVIPKLPQCLREEEEKESDSDSEGPIQYRDEEDEDESYQSALANKVKRKDTLAMKLNHRPSEPELNLNSWPCKSKEEWNEIRHQIGNTLIRRLSQRPTPEELEQRNILQPKNEADRQAEKREIKRRLTRKLSQRPTVAELLARKILRFNEYVEVTDAQDYDRRADKPWTKLTPADKAAIRKELNEFKSSEMEVHEESKHFTRYHRP
B3: Sterol-4-alpha-carboxylate 3-dehydrogenase, decarboxylating (protein, UniProt Q15738 1-373)
chain: MEPAVSEPMRDQVARTHLTEDTPKVNADIEKVNQNQAKRCTVIGGSGFLGQHMVEQLLARGYAVNVFDIQQGFDNPQVRFFLGDLCSRQDLYPALKGVNTVFHCASPPPSSNNKELFYRVNYIGTKNVIETCKEAGVQKLILTSSASVIFEGVDIKNGTEDLPYAMKPIDYYTETKILQERAVLGANDPEKNFLTTAIRPHGIFGPRDPQLVPILIEAARNGKMKFVIGNGKNLVDFTFVENVVHGHILAAEQLSRDSTLGGKAFHITNDEPIPFWTFLSRILTGLNYEAPKYHIPYWVAYYLALLLSLLVMVISPVIQLQPTFTPMRVALAGTFHYYSCERAKKAMGYQPLVTMDDAMERTVQSFRHLRRVK
B4: Occludin (protein, UniProt Q16625-1 1-522)
chain: MSSRPLESPPPYRPDEFKPNHYAPSNDIYGGEMHVRPMLSQPAYSFYPEDEILHFYKWTSPPGVIRILSMLIIVMCIAIFACVASTLAWDRGYGTSLLGGSVGYPYGGSGFGSYGSGYGYGYGYGYGYGGYTDPRAAKGFMLAMAAFCFIAALVIFVTSVIRSEMSRTRRYYLSVIIVSAILGIMVFIATIVYIMGVNPTAQSSGSLYGSQIYALCNQFYTPAATGLYVDQYLYHYCVVDPQEAIAIVLGFMIIVAFALIIFFAVKTRRKMDRYDKSNILWDKEHIYDEQPPNVEEWVKNVSAGTQDVPSPPSDYVERVDSPMAYSSNGKVNDKRFYPESSYKSTPVPEVVQELPLTSPVDDFRQPRYSSGGNFETPSKRAPAKGRAGRSKRTEQDHYETDYTTGGESCDELEEDWIREYPPITSDQQRQLYKRNFDTGLQEYKSLQSELDEINKELSRLDKELDDYREESEEYMAAADEYNRLKQVKGSADYKSKKNHCKQLKSKLSHIKKMVGDYDRQKT
B5: Nucleoporin NDC1 (protein, UniProt Q9BTX1-1 1-674)
chain: MATAVSRPCAGRSRDILWRVLGWRIVASIVWSVLFLPICTTVFIIFSRIDLFHPIQWLSDSFSDLYSSYVIFYFLLLSVVIIIISIFNVEFYAVVPSIPCSRLALIGKIIHPQQLMHSFIHAAMGMVMAWCAAVITQGQYSFLVVPCTGTNSFGSPAAQTCLNEYHLFFLLTGAFMGYSYSLLYFVNNMNYLPFPIIQQYKFLRFRRSLLLLVKHSCVESLFLVRNFCILYYFLGYIPKAWISTAMNLHIDEQVHRPLDTVSGLLNLSLLYHVWLCGVFLLTTWYVSWILFKIYATEAHVFPVQPPFAEGSDECLPKVLNSNPPPIIKYLALQDLMLLSQYSPSRRQEVFSLSQPGGHPHNWTAISRECLNLLNGMTQKLILYQEAAATNGRVSSSYPVEPKKLNSPEETAFQTPKSSQMPRPSVPPLVKTSLFSSKLSTPDVVSPFGTPFGSSVMNRMAGIFDVNTCYGSPQSPQLIRRGPRLWTSASDQQMTEFSNPSPSTSISAEGKTMRQPSVIYSWIQNKREQIKNFLSKRVLIMYFFSKHPEASIQAVFSDAQMHIWALEGLSHLVAASFTEDRFGVVQTTLPAILNTLLTLQEAVDKYFKLPHASSKPPRISGSLVDTSYKTLRFAFRASLKTAIYRITTTFGEHLNAVQASAEHQKRLQQFLEFKE
B6: Protein numb homolog (protein, UniProt P49757-1 1-651)
chain: MNKLRQSFRRKKDVYVPEASRPHQWQTDEEGVRTGKCSFPVKYLGHVEVDESRGMHICEDAVKRLKAERKFFKGFFGKTGKKAVKAVLWVSADGLRVVDEKTKDLIVDQTIEKVSFCAPDRNFDRAFSYICRDGTTRRWICHCFMAVKDTGERLSHAVGCAFAACLERKQKREKECGVTATFDASRTTFTREGSFRVTTATEQAEREEIMKQMQDAKKAETDKIVVGSSVAPGNTAPSPSSPTSPTSDATTSLEMNNPHAIPRRHAPIEQLARQGSFRGFPALSQKMSPFKRQLSLRINELPSTMQRKTDFPIKNAVPEVEGEAESISSLCSQITNAFSTPEDPFSSAPMTKPVTVVAPQSPTFQANGTDSAFHVLAKPAHTALAPVAMPVRETNPWAHAPDAANKEIAATCSGTEWGQSSGAASPGLFQAGHRRTPSEADRWLEEVSKSVRAQQPQASAAPLQPVLQPPPPTAISQPASPFQGNAFLTSQPVPVGVVPALQPAFVPAQSYPVANGMPYPAPNVPVVGITPSQMVANVFGTAGHPQAAHPHQSPSLVRQQTFPHYEASSATTSPFFKPPAQHLNGSAAFNGVDDGRLASADRHTEVPTGTCPVDPFEAQWAALENKSKQRTNPSPTNPFSSDLQKTFEIEL
B7: Numb-like protein (protein, UniProt Q9Y6R0 1-609)
chain: MSRSAAASGGPRRPERHLPPAPCGAPGPPETCRTEPDGAGTMNKLRQSLRRRKPAYVPEASRPHQWQADEDAVRKGTCSFPVRYLGHVEVEESRGMHVCEDAVKKLKAMGRKSVKSVLWVSADGLRVVDDKTKDLLVDQTIEKVSFCAPDRNLDKAFSYICRDGTTRRWICHCFLALKDSGERLSHAVGCAFAACLERKQRREKECGVTAAFDASRTSFAREGSFRLSGGGRPAEREAPDKKKAEAAAAPTVAPGPAQPGHVSPTPATTSPGEKGEAGTPVAAGTTAAAIPRRHAPLEQLVRQGSFRGFPALSQKNSPFKRQLSLRLNELPSTLQRRTDFQVKGTVPEMEPPGAGDSDSINALCTQISSSFASAGAPAPGPPPATTGTSAWGEPSVPPAAAFQPGHKRTPSEAERWLEEVSQVAKAQQQQQQQQQQQQQQQQQQQQAASVAPVPTMPPALQPFPAPVGPFDAAPAQVAVFLPPPHMQPPFVPAYPGLGYPPMPRVPVVGITPSQMVANAFCSAAQLQPQPATLLGKAGAFPPPAIPSAPGSQARPRPNGAPWPPEPAPAPAPELDPFEAQWAALEGKATVEKPSNPFSGDLQKTFEIEL
B8: Pleckstrin homology domain-containing family a member 5 (protein, UniProt Q9HAU0-6 1-1282)
chain: MAADLNLEWISLPRSWTYGITRGGRVFFINEEAKSTTWLHPVTGEAVVTGHRRQSTDLPTGWEEAYTFEGARYYINHNERKVTCKHPVTGQPSQDNCIFVVNEQTVATMTSEEKKERPISMINEASNYNVTSDYAVHPMSPVGRTSRASKKVHNFGKRSNSIKRNPNAPVVRRGWLYKQDSTGMKLWKKRWFVLSDLCLFYYRDEKEEGILGSILLPSFQIALLTSEDHINRKYAFKAAHPNMRTYYFCTDTGKEMELWMKAMLDAALVQTEPVKRITFNFRVDKITSENAPTKETNNIPNHRVLIKPEIQNNQKNKEMSKIEEKKALEAEKYGFQKDGQDRPLTKINSVKLNSLPSEYESGSACPAQTVHYRPINLSSSENKIVNVSLADLRGGNRPNTGPLYTEADRVIQRTNSMQQLEQWIKIQKGRGHEEETRGVISYQTLPRNMPSHRAQIMARYPEGYRTLPRNSKTRPESICSVTPSTHDKTLGPGAEEKRRSMRDDTMWQLYEWQQRQFYNKQSTLPRHSTLSSPKTMVNISDQTMHSIPTSPSHGSIAAYQGYSPQRTYRSEVSSPIQRGDVTIDRRHRAHHPKHVYVPDRRSVPAGLTLQSVSPQSLQGKTPEELTLLLIKLRRQQAELSSIREHTLAQLMQLKLEAHSPKNEILSHHLQRNTIYLDHQMKENEPIITMVHTMIENSALRPQLYQQFLRQKSKISLYCLSQDEGRGTLYKYRPEEVDIDAKLSRLCEQDKVVHALEEKLQQLHKEKYTLEQALLSASQEIEMHADNPAAIQTVVLQRDDLQNGLLSTCRELSRATAELERAWREYDKLEYDVTVTRNQMQEQLDHLGEVQTESAGIQRAQIQKELWRIQDVMEGLSKHKQQRGTTEIGMIGSKPFSTVKYKNEEEEVVPPRPPLPRSYDFTEQPPIIPPLPSDSSSLLCYSRGPVHLPEEKKMYQVQGYPRNGSHCGPDYRLYKSEPELTTVAEVDESNGEEKSEPVSEIETSVVKGSHFPVGVVPPRAKSPTPESSTIASYVTLRKTKKMMDLRTERPRSAVEQLCLAESTRPRMTVEEQMERIRRHQQACLREKKKGLNVIGASDQSPLQSPSNLRDNPFRTTQTRRRDDKELDTAIRENDVKPDHETPATEIVQLKETEPQNVDFSKELKKTENISYEMLFEPEPNGVNSVEMMDKERNKDKMPEDVTFSPQDETQTANHKPEEHPEENTKNSVDEQEETVISYESTPEVSRGNQTMAVKSLSPSPESSASPVPSTQPQLTEGSHFMCV

Amino acid sequences for entries named in this document (tags omitted).
UniProt Q8IWT6: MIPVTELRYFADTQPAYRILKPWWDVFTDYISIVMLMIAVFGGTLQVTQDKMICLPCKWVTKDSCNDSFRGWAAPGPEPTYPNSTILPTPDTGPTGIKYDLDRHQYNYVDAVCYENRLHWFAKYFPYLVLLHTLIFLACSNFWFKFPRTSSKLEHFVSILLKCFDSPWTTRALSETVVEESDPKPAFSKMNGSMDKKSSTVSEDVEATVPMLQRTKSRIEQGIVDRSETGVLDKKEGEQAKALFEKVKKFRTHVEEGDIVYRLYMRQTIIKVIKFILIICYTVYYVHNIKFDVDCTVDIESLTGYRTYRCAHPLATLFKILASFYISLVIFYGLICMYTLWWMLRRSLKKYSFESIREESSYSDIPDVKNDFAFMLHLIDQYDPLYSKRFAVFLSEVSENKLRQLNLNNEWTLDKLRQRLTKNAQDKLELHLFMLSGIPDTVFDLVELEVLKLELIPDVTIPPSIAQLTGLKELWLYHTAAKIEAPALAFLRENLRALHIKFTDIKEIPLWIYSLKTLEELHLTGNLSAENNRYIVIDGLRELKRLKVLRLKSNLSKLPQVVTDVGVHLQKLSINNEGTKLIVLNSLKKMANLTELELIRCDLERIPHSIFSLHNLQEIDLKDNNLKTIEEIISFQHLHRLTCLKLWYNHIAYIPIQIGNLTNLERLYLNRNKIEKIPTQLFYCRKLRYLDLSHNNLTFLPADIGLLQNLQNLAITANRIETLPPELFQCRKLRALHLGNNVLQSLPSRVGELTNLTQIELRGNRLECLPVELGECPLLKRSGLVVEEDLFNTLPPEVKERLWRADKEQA

Target: LRRC8A-BirA*-HA fusion protein (human) (UniProt Q8IWT6)
Test: proximity labelling; BioID: HEK293 cells stably expressing LRRC8A-BirA*-HA (two clones), 50 uM biotin 24 h, RIPA lysis, streptavidin bead pull-down of biotinylated proteins, TMT labelling and LC-MS/MS; hits: FDR <= 0.05 and fold change >= 2 against the no-biotin control

Row | binding | Binder
1 | binds | B1
2 | binds | B2
3 | binds | B3
4 | binds | B4
5 | binds | B5
6 | binds | B6
7 | binds | B7
8 | binds | B8

Reference: PMC11193767
